Results as given in PMC6698648, “A Fanci knockout mouse model reveals common and distinct functions for FANCI and FANCD2” (Nucleic Acids Research, 2019).
Results are given in words; binding and its absence hold for the method and conditions named. Some results given as binding are weak or reduced against the parent protein; the word gives no strength.

The chains behind the UniProt entries cited, without tags or fusion partners.
UniProt Q9NVI1: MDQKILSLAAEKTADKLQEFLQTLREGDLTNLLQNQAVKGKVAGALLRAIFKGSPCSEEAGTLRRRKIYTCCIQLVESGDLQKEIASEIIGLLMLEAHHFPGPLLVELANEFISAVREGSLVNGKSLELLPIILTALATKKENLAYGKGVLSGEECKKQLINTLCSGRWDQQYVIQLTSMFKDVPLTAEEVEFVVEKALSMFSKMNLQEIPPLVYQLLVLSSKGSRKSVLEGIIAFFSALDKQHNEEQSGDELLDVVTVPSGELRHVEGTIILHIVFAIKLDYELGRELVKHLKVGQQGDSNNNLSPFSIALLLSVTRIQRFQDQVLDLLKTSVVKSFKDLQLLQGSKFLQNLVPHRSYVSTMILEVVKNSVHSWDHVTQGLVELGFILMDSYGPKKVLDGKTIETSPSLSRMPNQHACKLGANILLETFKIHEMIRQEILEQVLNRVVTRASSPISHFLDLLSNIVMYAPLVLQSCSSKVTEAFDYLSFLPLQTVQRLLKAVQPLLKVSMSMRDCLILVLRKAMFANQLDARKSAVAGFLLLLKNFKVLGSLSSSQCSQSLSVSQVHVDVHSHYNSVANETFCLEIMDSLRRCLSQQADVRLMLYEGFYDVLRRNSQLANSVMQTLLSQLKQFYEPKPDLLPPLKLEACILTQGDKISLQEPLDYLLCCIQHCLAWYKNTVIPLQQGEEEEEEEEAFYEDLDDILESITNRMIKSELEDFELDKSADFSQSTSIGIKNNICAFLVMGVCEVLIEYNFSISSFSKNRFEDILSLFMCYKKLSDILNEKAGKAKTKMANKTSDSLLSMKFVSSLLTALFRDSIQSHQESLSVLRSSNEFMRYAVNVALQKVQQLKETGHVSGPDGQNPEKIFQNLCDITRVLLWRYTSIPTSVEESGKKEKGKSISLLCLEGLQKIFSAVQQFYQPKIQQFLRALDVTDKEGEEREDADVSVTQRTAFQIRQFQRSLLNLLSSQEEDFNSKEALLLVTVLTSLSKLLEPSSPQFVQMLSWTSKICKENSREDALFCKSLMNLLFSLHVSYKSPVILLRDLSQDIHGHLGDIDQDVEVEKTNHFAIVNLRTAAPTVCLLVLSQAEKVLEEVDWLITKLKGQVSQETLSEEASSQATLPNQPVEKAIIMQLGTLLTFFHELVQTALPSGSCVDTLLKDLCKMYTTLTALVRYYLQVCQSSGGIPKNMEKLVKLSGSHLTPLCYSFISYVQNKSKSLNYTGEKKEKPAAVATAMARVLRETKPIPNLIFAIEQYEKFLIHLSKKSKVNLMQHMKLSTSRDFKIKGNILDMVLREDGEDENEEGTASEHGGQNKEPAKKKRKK
UniProt Q06609: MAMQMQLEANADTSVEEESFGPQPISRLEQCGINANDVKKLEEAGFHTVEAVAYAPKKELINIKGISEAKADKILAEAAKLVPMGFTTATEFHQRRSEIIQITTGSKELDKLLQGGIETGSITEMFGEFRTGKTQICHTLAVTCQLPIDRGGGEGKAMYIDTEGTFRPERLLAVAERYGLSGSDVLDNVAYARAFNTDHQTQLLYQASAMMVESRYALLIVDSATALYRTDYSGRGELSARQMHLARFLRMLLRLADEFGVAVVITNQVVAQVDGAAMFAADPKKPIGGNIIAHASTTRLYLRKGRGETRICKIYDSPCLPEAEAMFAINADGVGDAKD

Biological target: FANCI (UniProt Q9NVI1)
Test: co-IP; 250 ng FANCI with 250 ng RAD51, purified recombinant proteins, 15 min at 37°C in 50 mM Tris-HCl pH 7.5, 250, 500 or 750 mM NaCl, 0.5% NP-40; immunoprecipitated with anti-FANCI and protein A/G-sepharose at 4°C, western blot with anti-RAD51; both purified

Question: Human RAD51 (from UniProt Q06609 1-339) was tested. Which binding did it give?
Answer: binds
